# PubChem BioAssay AID504793 – Drosophila RNAi Screening Center | 2011
# Assay: 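Whole-genome screen for parts of the DNA damage checkpoint at G2/M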 (primary screen)
# Cell system: Drosophila S2R+ cells
# Knock-down reagent: long dsRNA against Drosophila genes, about 0.25 µg dsRNA per well
# Time to read-out: 4 days of dsRNA, then 4 hours of drug before read-out
# Challenge: doxorubicin 0.5 µM for 4 hours to cause double-strand breaks, in cells also given a low, harmless dose of dsRNA against nbs to sensitise the assay
# Measured: 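Per-well count of mitotic cells stained for phospho-histone H3 after doxorubicin exposure, used as mitotic index; counts are raw and not normalised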
# Scale: mitotic cells: higher = more cells in mitosis, weaker G2 arrest
# Hit rule: 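Genes are called active only when high mitotic counts were reproduced with independent dsRNAs and mitosis was checked for delay without damage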
# Calls: active = confirmed in follow-up tests; inactive = not confirmed
# The deposit covers about 23,000 reagents; this is an unselected part of those with a known target gene and a result. Over the whole deposit, 62 (0.27%) are marked active. 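Calls come from follow-up tests whose scores are not deposited, so confirmed genes may have low counts here; counts are not normalised per plate.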 Raw values vary from plate to plate and are shown uncorrected. Names joined by + are all predicted targets of the reagent.
predicted target,DRSC id,"mitotic cells, replicate 1",Call
Usp2,DRSC20590,7,inactive
Usp2,DRSC20632,3,inactive
Usp2,DRSC20633,10,inactive
Usp2,DRSC27066,3,inactive
Cpr64Aa,DRSC08460,4,inactive
Cpr64Aa,DRSC23801,4,inactive
Nfs1,DRSC02154,2,inactive
EMC3,DRSC02989,5,inactive
EMC3,DRSC28014,4,inactive
Itgbn,DRSC03493,2,inactive
numb,DRSC03584,4,inactive
CG42319,DRSC06645,9,inactive
CG42319,DRSC06646,4,inactive
CG42319,DRSC22426,10,inactive
CG42319,DRSC26059,3,inactive
kay,DRSC13962,6,inactive
kay,DRSC16977,19,inactive
Sap47,DRSC16850,6,inactive
Sap47,DRSC27162,7,inactive
l(2)05714,DRSC03118,3,inactive
l(2)05714,DRSC29829,13,inactive
Stt3A,DRSC20514,4,inactive
Stt3A,DRSC24884,5,inactive
CG10375,DRSC28520,9,inactive
msk,DRSC11340,6,inactive
msk,DRSC23929,3,inactive
CG5676,DRSC02875,5,inactive
Tpt,DRSC27217,4,inactive
CG32052,DRSC10966,5,inactive
CG32052,DRSC27465,4,inactive
CG10862,DRSC08170,11,inactive
GXIVsPLA2,DRSC10243,7,inactive
GXIVsPLA2,DRSC29361,5,inactive
lectin-46Cb,DRSC06611,7,inactive
lectin-46Cb,DRSC25309,12,inactive
cactin,DRSC20576,3,inactive
Ilp6,DRSC17906,16,inactive
Hsc70-2,DRSC16710,3,inactive
Hsc70-2,DRSC28457,6,inactive
PGAP3,DRSC04989,3,inactive
CG14868,DRSC14991,3,inactive
CG14868,DRSC27707,5,inactive
Spn47C,DRSC07030,7,inactive
Spn47C,DRSC30068,3,inactive
CG2574,DRSC19862,14,inactive
5-HT7,DRSC12635,4,inactive
5-HT7,DRSC24891,5,inactive
CG9259,DRSC03174,2,inactive
CG31229,DRSC13309,4,inactive
Mip,DRSC23429,3,inactive
CG34124,DRSC00849,9,inactive
Obp49a,DRSC22562,3,inactive
Obp49a,DRSC25703,2,inactive
CG13282,DRSC02254,4,inactive
CG8079,DRSC07070,1,inactive
CG8079,DRSC07071,4,inactive
CG6845,DRSC08576,3,inactive
CG6845,DRSC26319,6,inactive
Gr59d,DRSC22553,11,inactive
RpL18A,DRSC07538,5,inactive
inaD,DRSC04694,4,inactive
inaD,DRSC27116,8,inactive
CG9801,DRSC16568,3,inactive
Sox100B,DRSC15090,14,inactive
Sox100B,DRSC23485,4,inactive
repo,DRSC23108,6,inactive
repo,DRSC26970,6,inactive
CG8248,DRSC07124,2,inactive
RPA1,DRSC16830,44,active
CG7430,DRSC10845,10,inactive
CG32856,DRSC13124,9,inactive
CG32856,DRSC29746,10,inactive
CG13700,DRSC10049,4,inactive
CG13700,DRSC29871,6,inactive
Rtf1,DRSC04085,8,inactive
Rtf1,DRSC29441,3,inactive
CG3999,DRSC15534,3,inactive
CG3999,DRSC29444,11,inactive
CycH,DRSC11861,,inactive
CycH,DRSC21308,5,inactive
E(spl)m2-BFM,DRSC23082,20,inactive
CG9806,DRSC18444,12,inactive
CG9806,DRSC27417,4,inactive
CG13367,DRSC18485,6,inactive
CG13367,DRSC18486,13,inactive
Hydr2,DRSC00607,7,inactive
ND-B8,DRSC00449,2,inactive
spg,DRSC14373,11,inactive
spg,DRSC14881,14,inactive
CG8237,DRSC07119,7,inactive
CG8237,DRSC26686,5,inactive
Papst2,DRSC10924,9,inactive
Papst2,DRSC27212,8,inactive
CG8777,DRSC07263,11,inactive
Ir47a,DRSC06215,5,inactive
CG4194,DRSC18520,6,inactive
Grip71,DRSC02042,47,inactive
LManVI,DRSC03224,4,inactive
LManVI,DRSC27521,6,inactive
Hsf,DRSC07443,4,inactive
Hsf,DRSC27700,8,inactive
lncRNA:CR30009,DRSC22952,16,inactive
lncRNA:CR30009,DRSC29817,5,inactive
CG34315 + Orc3,DRSC07642,6,inactive
CG34315 + Orc3,DRSC25371,6,inactive
Vps35,DRSC04519,6,inactive
Vps35,DRSC28790,2,inactive
CG9522,DRSC20197,8,inactive
Prosalpha3,DRSC04644,25,inactive
yellow-e3,DRSC15170,10,inactive

12 entries from above, arranged by “mitotic cells, replicate 1”, ascending.
predicted target,DRSC id,"mitotic cells, replicate 1",Call
CG8079,DRSC07070,1,inactive
CG9259,DRSC03174,2,inactive
Obp49a,DRSC25703,2,inactive
Mip,DRSC23429,3,inactive
Obp49a,DRSC22562,3,inactive
CG6845,DRSC08576,3,inactive
5-HT7,DRSC12635,4,inactive
CG31229,DRSC13309,4,inactive
CG13282,DRSC02254,4,inactive
CG8079,DRSC07071,4,inactive
5-HT7,DRSC24891,5,inactive
CG34124,DRSC00849,9,inactive
